Data reported in publication PMC10998878, “Inhibition of acyl-CoA binding protein (ACBP) by means of a GABAARγ2-derived peptide” (Cell Death & Disease, 2024).
No constants are given. Whether binding was seen depends on the method and setting. Binding seen in cells or lysates may run through a third protein. Some entries that bind do so weakly or less than the wild type.

Molecular target: T1, Biotinylated GABAARγ2-EP-WT (mouse)
T1 sequence (peptide, biotin (site not stated)): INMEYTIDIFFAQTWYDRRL
Assay: pull-down; biotinylated WT or F77I eicosapeptide (1x, 2x, 4x) on beads, incubated with 500 µg mouse liver protein extract overnight at 4 °C, three PBS washes, immunoblot for ACBP; only the target purified

B1: endogenous (native) ACBP/DBI of mouse liver (protein, UniProt P31786 1-87)
chain: MSQAEFDKAAEEVKRLKTQPTDEEMLFIYSHFKQATVGDVNTDRPGLLDLKGKAKWDSWNKLKGTSKESAMKTYVEKVDELKKKYGI
Q: Which binding does the source give for B1 here?
A: binds
